Test results published in the supplement of paper PMC11732987, “Enantioselective OTUD7B fragment discovery through chemoproteomics screening and high-throughput optimisation” (Communications Chemistry, 2025).
The list shows a part of the results. The data scatter; read single values as rough.

Chains of the proteins cited; added tags and fusions are not shown. Lines headed by an entry give the natural chain unless they say otherwise; changes in a name come on top. Residues count along the entry.
UniProt Q86YA3: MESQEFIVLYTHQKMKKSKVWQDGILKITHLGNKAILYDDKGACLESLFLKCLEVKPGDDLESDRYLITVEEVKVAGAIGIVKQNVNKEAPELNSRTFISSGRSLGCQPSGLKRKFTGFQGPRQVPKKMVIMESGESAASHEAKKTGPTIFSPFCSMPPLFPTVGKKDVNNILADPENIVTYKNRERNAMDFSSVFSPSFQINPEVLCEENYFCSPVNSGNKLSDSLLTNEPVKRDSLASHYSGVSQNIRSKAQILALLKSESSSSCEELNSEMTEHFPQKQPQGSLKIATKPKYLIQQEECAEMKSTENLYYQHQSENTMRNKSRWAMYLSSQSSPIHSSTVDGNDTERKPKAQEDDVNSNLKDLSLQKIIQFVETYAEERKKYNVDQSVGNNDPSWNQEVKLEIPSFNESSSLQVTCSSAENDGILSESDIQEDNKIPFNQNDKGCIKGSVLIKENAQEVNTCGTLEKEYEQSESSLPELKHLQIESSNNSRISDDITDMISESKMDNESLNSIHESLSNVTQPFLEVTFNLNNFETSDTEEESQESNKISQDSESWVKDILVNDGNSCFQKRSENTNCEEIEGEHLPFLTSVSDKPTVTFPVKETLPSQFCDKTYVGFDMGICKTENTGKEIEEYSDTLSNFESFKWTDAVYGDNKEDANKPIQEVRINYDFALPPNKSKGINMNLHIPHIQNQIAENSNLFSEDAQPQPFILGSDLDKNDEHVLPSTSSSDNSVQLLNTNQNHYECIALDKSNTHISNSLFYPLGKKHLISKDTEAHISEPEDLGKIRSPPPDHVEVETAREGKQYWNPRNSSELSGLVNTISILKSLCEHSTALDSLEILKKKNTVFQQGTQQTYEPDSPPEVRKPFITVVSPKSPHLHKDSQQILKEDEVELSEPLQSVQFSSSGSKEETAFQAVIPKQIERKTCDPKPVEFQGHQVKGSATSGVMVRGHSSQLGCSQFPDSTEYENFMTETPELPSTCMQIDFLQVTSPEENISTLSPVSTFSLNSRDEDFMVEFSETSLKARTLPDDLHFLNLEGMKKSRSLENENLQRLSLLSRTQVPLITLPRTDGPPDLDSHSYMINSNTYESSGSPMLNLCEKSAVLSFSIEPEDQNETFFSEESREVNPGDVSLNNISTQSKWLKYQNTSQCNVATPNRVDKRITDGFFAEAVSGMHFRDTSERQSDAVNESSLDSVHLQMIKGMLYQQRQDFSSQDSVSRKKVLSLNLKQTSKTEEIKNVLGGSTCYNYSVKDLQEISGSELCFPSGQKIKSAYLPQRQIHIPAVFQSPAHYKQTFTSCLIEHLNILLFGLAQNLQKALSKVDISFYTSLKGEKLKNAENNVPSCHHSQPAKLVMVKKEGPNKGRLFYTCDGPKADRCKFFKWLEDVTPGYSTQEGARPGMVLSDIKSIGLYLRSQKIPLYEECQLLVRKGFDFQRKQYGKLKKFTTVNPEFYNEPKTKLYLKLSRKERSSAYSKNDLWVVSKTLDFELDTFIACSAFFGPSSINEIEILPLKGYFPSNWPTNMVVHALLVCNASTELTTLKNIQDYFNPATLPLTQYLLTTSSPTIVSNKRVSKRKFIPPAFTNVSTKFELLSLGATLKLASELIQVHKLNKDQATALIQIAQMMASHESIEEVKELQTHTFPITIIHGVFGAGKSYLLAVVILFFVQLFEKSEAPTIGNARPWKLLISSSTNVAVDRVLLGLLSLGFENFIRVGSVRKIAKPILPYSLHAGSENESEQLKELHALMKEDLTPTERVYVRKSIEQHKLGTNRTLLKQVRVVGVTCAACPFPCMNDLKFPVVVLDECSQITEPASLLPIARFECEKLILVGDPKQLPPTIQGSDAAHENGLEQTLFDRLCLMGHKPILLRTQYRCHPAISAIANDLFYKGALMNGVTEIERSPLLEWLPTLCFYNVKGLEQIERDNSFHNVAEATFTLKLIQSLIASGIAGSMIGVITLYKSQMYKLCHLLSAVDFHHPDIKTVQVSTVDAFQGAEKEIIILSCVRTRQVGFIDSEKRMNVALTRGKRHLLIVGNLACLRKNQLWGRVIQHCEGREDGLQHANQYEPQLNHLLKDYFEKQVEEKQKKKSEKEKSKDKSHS
UniProt P17028: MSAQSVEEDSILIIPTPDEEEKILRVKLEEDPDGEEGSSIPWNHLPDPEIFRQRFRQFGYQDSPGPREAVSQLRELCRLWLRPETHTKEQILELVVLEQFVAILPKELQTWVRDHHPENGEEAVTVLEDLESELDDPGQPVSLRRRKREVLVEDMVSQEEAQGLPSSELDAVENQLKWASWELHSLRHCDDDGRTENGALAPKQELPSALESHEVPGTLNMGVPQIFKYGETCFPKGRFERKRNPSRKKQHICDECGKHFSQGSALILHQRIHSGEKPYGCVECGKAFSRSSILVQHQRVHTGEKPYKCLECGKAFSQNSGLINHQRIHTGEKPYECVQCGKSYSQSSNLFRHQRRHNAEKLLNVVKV
UniProt Q9NTW7: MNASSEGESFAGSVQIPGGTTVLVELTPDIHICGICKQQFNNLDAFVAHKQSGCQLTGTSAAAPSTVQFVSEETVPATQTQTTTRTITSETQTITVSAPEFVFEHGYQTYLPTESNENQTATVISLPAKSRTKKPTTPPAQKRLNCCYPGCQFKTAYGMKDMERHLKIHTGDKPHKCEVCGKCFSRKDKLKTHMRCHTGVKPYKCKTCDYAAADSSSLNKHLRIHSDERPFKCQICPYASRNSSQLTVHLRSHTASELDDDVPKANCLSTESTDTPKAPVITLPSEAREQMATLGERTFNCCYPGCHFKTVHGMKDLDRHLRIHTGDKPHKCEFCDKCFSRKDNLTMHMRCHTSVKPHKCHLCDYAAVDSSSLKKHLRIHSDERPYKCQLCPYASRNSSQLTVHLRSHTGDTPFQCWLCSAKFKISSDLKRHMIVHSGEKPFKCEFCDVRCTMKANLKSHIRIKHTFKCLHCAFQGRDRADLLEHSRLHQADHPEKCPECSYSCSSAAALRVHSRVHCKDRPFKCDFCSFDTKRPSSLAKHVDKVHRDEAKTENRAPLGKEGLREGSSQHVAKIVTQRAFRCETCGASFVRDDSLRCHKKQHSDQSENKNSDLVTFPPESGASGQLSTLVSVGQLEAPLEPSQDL
UniProt Q96K83: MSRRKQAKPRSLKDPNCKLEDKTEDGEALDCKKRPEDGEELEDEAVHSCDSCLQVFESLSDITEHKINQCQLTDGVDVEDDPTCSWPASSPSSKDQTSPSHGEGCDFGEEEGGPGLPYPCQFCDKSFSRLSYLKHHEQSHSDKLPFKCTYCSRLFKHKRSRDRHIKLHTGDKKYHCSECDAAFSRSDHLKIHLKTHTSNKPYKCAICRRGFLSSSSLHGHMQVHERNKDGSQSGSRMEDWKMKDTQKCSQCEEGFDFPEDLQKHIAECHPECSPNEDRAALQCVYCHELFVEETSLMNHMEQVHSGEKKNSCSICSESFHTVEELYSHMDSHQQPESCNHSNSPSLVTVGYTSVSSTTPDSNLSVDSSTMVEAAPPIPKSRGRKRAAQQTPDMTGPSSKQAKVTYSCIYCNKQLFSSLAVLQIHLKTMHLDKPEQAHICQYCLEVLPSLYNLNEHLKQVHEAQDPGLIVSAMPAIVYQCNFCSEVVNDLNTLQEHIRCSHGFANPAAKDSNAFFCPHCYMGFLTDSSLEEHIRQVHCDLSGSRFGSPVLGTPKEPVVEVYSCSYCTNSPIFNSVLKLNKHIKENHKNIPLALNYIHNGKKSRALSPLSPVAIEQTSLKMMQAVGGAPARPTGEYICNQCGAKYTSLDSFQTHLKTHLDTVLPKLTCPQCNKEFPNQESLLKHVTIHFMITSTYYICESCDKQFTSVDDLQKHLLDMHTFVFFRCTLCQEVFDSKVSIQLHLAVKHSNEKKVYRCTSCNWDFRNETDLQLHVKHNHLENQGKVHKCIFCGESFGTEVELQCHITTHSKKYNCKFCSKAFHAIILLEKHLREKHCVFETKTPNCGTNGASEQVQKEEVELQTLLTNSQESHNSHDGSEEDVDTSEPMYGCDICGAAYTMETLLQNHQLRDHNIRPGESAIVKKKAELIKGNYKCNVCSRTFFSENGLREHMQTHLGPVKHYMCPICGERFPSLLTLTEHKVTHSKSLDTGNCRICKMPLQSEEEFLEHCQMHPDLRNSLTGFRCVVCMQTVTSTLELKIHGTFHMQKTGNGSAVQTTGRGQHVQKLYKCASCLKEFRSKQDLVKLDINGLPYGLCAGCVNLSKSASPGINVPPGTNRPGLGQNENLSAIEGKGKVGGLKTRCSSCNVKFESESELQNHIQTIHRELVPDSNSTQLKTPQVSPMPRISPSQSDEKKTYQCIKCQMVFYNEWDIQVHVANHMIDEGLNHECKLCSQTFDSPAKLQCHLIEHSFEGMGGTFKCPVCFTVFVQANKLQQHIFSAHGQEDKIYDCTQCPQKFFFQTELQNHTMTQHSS
UniProt Q96K58: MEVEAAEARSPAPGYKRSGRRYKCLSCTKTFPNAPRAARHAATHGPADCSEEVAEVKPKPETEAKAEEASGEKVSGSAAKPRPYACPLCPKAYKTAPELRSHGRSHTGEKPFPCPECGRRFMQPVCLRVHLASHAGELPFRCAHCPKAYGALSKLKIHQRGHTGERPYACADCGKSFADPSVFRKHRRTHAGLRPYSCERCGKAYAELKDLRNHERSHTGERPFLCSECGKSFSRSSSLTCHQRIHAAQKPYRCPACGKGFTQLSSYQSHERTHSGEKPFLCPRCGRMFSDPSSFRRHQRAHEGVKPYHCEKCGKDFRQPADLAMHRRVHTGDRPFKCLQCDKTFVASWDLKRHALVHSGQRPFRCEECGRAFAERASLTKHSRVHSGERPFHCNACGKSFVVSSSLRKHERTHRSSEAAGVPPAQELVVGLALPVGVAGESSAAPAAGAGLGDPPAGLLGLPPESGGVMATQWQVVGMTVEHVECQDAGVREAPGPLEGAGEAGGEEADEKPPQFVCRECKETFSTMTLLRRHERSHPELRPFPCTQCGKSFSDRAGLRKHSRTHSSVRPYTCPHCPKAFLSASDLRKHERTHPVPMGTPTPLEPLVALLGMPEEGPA
UniProt Q96H79: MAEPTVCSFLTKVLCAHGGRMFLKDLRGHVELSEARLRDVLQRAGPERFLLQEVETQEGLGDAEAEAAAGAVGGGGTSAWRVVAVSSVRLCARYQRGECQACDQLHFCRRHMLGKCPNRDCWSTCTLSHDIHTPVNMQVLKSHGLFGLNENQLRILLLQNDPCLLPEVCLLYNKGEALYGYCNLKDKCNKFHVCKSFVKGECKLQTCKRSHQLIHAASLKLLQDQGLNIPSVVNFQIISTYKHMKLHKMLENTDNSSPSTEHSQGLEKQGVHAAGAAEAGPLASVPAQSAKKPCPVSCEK
UniProt Q6FIF0: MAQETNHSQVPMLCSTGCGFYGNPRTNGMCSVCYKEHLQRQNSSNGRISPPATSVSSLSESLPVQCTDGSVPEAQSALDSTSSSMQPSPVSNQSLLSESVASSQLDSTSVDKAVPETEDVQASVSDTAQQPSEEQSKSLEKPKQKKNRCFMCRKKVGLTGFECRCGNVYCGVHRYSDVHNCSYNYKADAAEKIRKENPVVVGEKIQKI
UniProt Q5SVZ6, 13-37: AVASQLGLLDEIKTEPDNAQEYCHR
UniProt Q86UK7, 404-439: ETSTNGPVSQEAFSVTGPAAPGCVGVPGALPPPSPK
UniProt Q9UHR6: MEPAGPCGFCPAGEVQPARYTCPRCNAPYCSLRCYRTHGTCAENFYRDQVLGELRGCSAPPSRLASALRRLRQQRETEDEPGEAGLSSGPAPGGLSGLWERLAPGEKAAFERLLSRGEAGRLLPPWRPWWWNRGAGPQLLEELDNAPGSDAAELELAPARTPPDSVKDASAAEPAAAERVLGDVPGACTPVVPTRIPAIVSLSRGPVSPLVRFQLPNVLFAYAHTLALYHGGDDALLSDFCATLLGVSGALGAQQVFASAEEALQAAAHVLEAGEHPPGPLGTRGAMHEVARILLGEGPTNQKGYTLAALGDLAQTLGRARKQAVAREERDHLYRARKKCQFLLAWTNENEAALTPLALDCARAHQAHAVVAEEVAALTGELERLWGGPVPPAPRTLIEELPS
UniProt Q14966, 669-695: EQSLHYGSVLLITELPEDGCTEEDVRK
UniProt Q86WB0: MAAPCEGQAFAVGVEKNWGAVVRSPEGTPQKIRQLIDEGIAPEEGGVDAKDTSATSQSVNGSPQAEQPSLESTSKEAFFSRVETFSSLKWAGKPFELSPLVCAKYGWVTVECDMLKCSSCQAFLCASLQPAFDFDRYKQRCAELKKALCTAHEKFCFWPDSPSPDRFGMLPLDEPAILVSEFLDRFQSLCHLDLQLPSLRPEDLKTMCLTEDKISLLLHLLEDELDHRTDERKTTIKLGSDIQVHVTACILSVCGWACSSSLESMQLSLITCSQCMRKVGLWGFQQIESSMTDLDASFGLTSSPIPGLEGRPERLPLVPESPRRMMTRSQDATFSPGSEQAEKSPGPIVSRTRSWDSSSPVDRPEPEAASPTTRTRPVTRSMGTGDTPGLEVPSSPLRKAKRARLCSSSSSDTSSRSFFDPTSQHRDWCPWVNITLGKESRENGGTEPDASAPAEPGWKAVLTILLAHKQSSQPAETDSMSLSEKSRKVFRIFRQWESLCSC

Experiments:
[1] = compound: ClCC(=O)N[C@@H]1CCCc2ccccc12; assay: log2 mean competition ratio of IA-DTB cysteine labelling (DMSO/compound) (log2 ratio); higher = stronger cysteine engagement by compound; conditions: treatment time: 4 h, cell line lysate: HEK293T
Method: (§1)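 IA-DTB competitive cysteine chemoproteomics in HEK293T RIPA lysate. Lysates were treated with compound 29 or 30 at 50 or 200 µM for 4 h, then IA-DTB (500 µM, 1 h), trypsin-digested, NeutrAvidin-enriched and analysed by diaPASEF. Competition ratio = intensity DMSO / intensity compound (n=4 treated, n=64 DMSO); binding: mean log2 CR ≥ 1 and p ≤ 0.05 plus QC filters. Target is the cysteine site.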

[2] = compound: ClCC(=O)N[C@H]1CCCc2ccccc12; assay: as above; conditions: treatment time: 4 h, cell line lysate: HEK293T
Method: as §1

| Target | log2 mean competition ratio ([1]; 50 µM) | log2 mean competition ratio ([1]; 200 µM) | log2 mean competition ratio ([2]; 50 µM) | log2 mean competition ratio ([2]; 200 µM) |
| --- | --- | --- | --- | --- |
| ZGRF1 C571 (UniProt Q86YA3) | -0.0907 | 0.0656 | 0.355 | – |
| ZNF106 C1238 (UniProt Q9H2Y7) | 0.417 | -0.299 | – | 0.00736 |
| ZNF24 C233 (UniProt P17028) | 0.145 | 0.0684 | – | – |
| ZHX2 C738 (UniProt Q9Y6X8) | 0.117 | 0.567 | – | – |
| ZRSR2P1;ZRSR2 C177;(C172) | -0.142 | -0.00379 | 0.444 | 0.18 |
| ZFP64 C267 (UniProt Q9NTW7) | -0.0101 | 0.0223 | – | – |
| ZNF521 C833 (UniProt Q96K83) | 0.358 | -0.231 | – | -0.0769 |
| ZNF668 C241 (UniProt Q96K58) | 0.0764 | -0.16 | – | – |
| ZDBF2 C162 | -0.0141 | 0.0634 | – | – |
| ZNF8 C94 (UniProt P17098) | -0.204 | -0.329 | – | – |
| ZDHHC18 C156 (UniProt Q9NUE0) | -0.018 | 0.132 | -0.504 | 0.0281 |
| ZGPAT C180 (UniProt Q8N5A5) | 0.312 | 0.128 | – | – |
| ZNF609 C944 (UniProt O15014) | -0.172 | 0.126 | – | – |
| ZSWIM8 C979 (UniProt A7E2V4) | 0.169 | -0.0912 | – | – |
| ZNF131 C9 (UniProt P52739) | 0.319 | 0.318 | – | – |
| ZC3HAV1L C7 (UniProt Q96H79) | -0.197 | -0.298 | – | – |
| ZNF827 C485 | -0.123 | -0.171 | – | – |
| ZNF451 C461 (UniProt Q9Y4E5) | -0.131 | -0.0675 | – | – |
| ZUP1 C360 (UniProt Q96AP4) | 0.197 | -0.193 | – | – |
| ZNF552 C121 (UniProt Q9H707) | 0.139 | 0.28 | – | 0.218 |
| ZSWIM3 C151 | -0.0126 | 0.0189 | -0.436 | – |
| ZNF654 C927, A0A1B0GWA0 | -0.00617 | -0.00864 | -0.151 | 0.161 |
| ZNF805 C185 | -0.066 | -0.509 | – | – |
| ZNF407 C1394 (UniProt Q9C0G0) | -0.363 | -0.191 | – | – |
| ZDBF2 C1597 | 0.034 | 0.292 | – | – |

| Target | log2 mean competition ratio ([1]; 50 µM) | log2 mean competition ratio ([1]; 200 µM) | log2 mean competition ratio ([2]; 50 µM) | log2 mean competition ratio ([2]; 200 µM) |
| --- | --- | --- | --- | --- |
| ZNF35 C129 | -0.0983 | 0.118 | – | – |
| ZNF616 C163 | -0.0501 | 0.0233 | – | – |
| ZFP91 C182 (UniProt Q96JP5) | 0.0157 | 0.169 | – | – |
| ZZEF1 C2312 (UniProt O43149) | -0.0776 | 0.0785 | -0.0539 | 0.129 |
| ZCCHC2 C305 | 0.0567 | 0.209 | 0.495 | -0.162 |
| ZNF655 C189 (UniProt Q8N720) | -0.183 | 0.272 | -0.909 | -0.00026 |
| ZC3HAV1L C182 (UniProt Q96H79) | 0.115 | -0.402 | 0.125 | -0.415 |
| ZNF142 C1049 | 0.125 | 0.287 | -0.103 | 0.128 |
| ZNHIT6 C254 (UniProt Q9NWK9) | -0.139 | -0.405 | -0.00959 | -0.25 |
| ZNF496 C324 | -0.126 | -0.0238 | -0.131 | -0.131 |
| ZFR C844 (UniProt Q96KR1) | -0.0193 | -0.182 | -0.125 | 0.178 |
| ZNF644 C554 (UniProt Q9H582) | 0.166 | 0.27 | -0.187 | 0.189 |
| ZZZ3 C104 (UniProt Q8IYH5) | -0.33 | 0.29 | -0.0896 | 0.421 |
| ZFAND6 C163 (UniProt Q6FIF0) | 0.0133 | 0.0225 | 0.0296 | 0.00374 |
| ZNF324 C198 (UniProt O75467) | -0.318 | 0.165 | -0.211 | 0.116 |
| ZHX3 C11 (UniProt Q9H4I2) | 0.0535 | -0.556 | 0.76 | -0.317 |
| ZMYM1 C35 (UniProt Q5SVZ6) | -0.204 | 0.623 | 0.153 | -0.0517 |
| ZNF100 C9 (UniProt Q8IYN0) | 0.231 | 0.346 | -0.00899 | 0.451 |
| ZNF148 C14 (UniProt Q9UQR1) | -0.142 | -0.0175 | -0.0283 | -0.0316 |
| ZCCHC8 C157 (UniProt Q6NZY4) | -0.119 | -0.193 | 0.0307 | -0.268 |
| ZNF24 C189 (UniProt P17028) | -0.0729 | 0.0428 | -0.169 | 0.00621 |
| ZSCAN30 C171 | -0.105 | 0.0191 | 0.11 | 0.017 |
| ZNF598 C426 (UniProt Q86UK7) | -0.321 | 0.0118 | -0.693 | -0.319 |
| ZNHIT2 C188 (UniProt Q9UHR6) | -0.247 | -0.105 | -0.0402 | -0.0729 |
| ZNF592 C353 (UniProt Q92610) | -0.0591 | -0.0193 | -0.0912 | 0.0895 |

| Target | log2 mean competition ratio ([1]; 50 µM) | log2 mean competition ratio ([1]; 200 µM) | log2 mean competition ratio ([2]; 50 µM) | log2 mean competition ratio ([2]; 200 µM) |
| --- | --- | --- | --- | --- |
| ZFYVE26 C66 (UniProt Q68DK2) | 0.0401 | 0.11 | -0.277 | 0.226 |
| ZNF805 C168 | -0.531 | 0.162 | -0.31 | 0.21 |
| ZNF740 C159 (UniProt Q8NDX6) | 0.339 | -0.145 | 0.379 | -0.787 |
| ZMAT3 C107 | 0.324 | 0.125 | 0.672 | 0.383 |
| ZNF598 C835 (UniProt Q86UK7) | -0.365 | 0.283 | 0.357 | 0.481 |
| ZCCHC8 C262 (UniProt Q6NZY4) | -0.364 | -0.0121 | -0.356 | -0.047 |
| ZNF776 C238 | -0.127 | 0.335 | -0.152 | 0.141 |
| ZFR C525 (UniProt Q96KR1) | -0.0815 | -0.13 | -0.0284 | -0.102 |
| ZZEF1 C2084 (UniProt O43149) | -0.0594 | 0.203 | 0.13 | 0.0648 |
| ZNF638 C688 (UniProt Q14966) | 0.0982 | -0.185 | 0.385 | -0.441 |
| ZC3HAV1L C202 (UniProt Q96H79) | -0.219 | 0.0969 | -0.0806 | 0.00219 |
| ZNF512B C871 (UniProt Q96KM6) | -0.163 | 0.0465 | 0.0616 | -0.0262 |
| ZNF709 C198(C394)(C450)(C506)(C534)(C562) | -0.11 | 0.264 | 0.0412 | 0.173 |
| ZFYVE16 C304 (UniProt Q7Z3T8) | 0.00173 | 0.0453 | 0.443 | 0.237 |
| ZNF14 C80 | 0.045 | -0.127 | -0.0648 | -0.437 |
| ZNF114 C279 | -0.218 | -0.232 | -0.212 | -0.355 |
| ZNF185 C615 | 0.519 | -0.298 | 0.126 | -0.0557 |
| ZC3HC1 C406 (UniProt Q86WB0) | 0.15 | 0.0935 | -0.0472 | 0.16 |
| ZNF638 C652 (UniProt Q14966) | -0.0871 | 0.366 | -0.123 | 0.47 |
| ZWILCH C7 (UniProt Q9H900) | 0.134 | -0.121 | -0.182 | -0.202 |
| ZNF516 C1016 (UniProt Q92618) | 0.0662 | 0.0563 | 0.354 | -0.0754 |
| ZC3HC1 C208 (UniProt Q86WB0) | 0.185 | -0.0421 | 0.183 | 0.208 |
| ZDHHC16 C157 (UniProt Q969W1) | -0.119 | -0.274 | -0.205 | 0.177 |
| ZMYM2 C667 (UniProt Q9UBW7) | -0.252 | 0.247 | -0.159 | -0.0841 |

Reprinted from the entries so far for reference:

| Target | log2 mean competition ratio ([1]; 50 µM) | log2 mean competition ratio ([1]; 200 µM) | log2 mean competition ratio ([2]; 50 µM) | log2 mean competition ratio ([2]; 200 µM) |
| --- | --- | --- | --- | --- |
| ZC3HC1 C406 (UniProt Q86WB0) | 0.15 | 0.0935 | -0.0472 | 0.16 |
| ZNF638 C652 (UniProt Q14966) | -0.0871 | 0.366 | -0.123 | 0.47 |
| ZWILCH C7 (UniProt Q9H900) | 0.134 | -0.121 | -0.182 | -0.202 |
| ZNF516 C1016 (UniProt Q92618) | 0.0662 | 0.0563 | 0.354 | -0.0754 |
| ZC3HC1 C208 (UniProt Q86WB0) | 0.185 | -0.0421 | 0.183 | 0.208 |
